At least one compound was matched to its structure with a doubt left. Where a SMILES comes first, the peptide text is derived from it. Bridges are numbered along the chain shown (N, C = ends). [ ]: non-standard residue; d: D form. The star is where a group is joined. Gly(N-2-aminoethyl) = NCCNCC(=O)O; 3Pal = N[C@@H](Cc1cccnc1)C(=O)O; X1 = Nc1ccn(CC(=O)*)c(=O)n1; Bn = c1ccc(C*)cc1
Experiments:
pituitary adenoma cells [1] = test: Cell proliferation: CELLTITER 96 Aqueous (MTS/PMS) assay, number of viable cells; assay type: cell-based; settings: 10^-9 M, 48 hours incubation, medium with 10% FBS, absorbance at 490 nm
Procedure: The effects of SSTR selective agonists on pituitary adenoma cell proliferation were assessed by the CELLTITER 96 Aqueous Non-Radioactive Cell Proliferation Assay (Promega, Milano, Italy), a colorimetric method for determining the number of viable cells in proliferation assays. The assay contains solutions of a tetrazolium compound (Owen's reagent; MTS) and an electron coupling reagent (phenazine methosulphate; PMS). MTS is bioreduced by cells into a formazan that is soluble in tissue culture medium. The absorbance of the formazan at 490 nm can be measured directly from 96 well assay plates (Zatelli M C, et al., 2000 J Clin Endocrinol Metab 85: 847-852; Cory A H, et al., 1991 Cancer Commun 3: 207-212). […] The quantity of formazan product as measured by the amount of 490 nm absorbance is directly proportional to the number of living cells in culture.
Briefly, adenoma cells were plated in 96-multiwell plates (2×10^4 cells/well) and incubated for 48 hours in a medium supplemented with 10% FBS in the presence or absence of each SRIF analogue (including in one instance, compounds 2 & 3 together) at a concentration of 10^−9 M. Treatments were renewed by adding fresh analogues to the wells after the first 24 hours of incubation. […] The absorbance at 490 nm was then recorded using an ELISA plate reader (EASIA Reader, Medgenix). […]

pituitary adenoma cells [2] = test: DNA synthesis: [3H]thymidine incorporation in pituitary adenoma cells; assay type: cell-based; settings: 10^-9 M, 48 h incubation, medium with 10% FBS, pituitary cells from functioning adenomas
Procedure: The effects of SSTR selective agonists and antagonists on pituitary adenoma cell DNA synthesis were assessed by determining the rate of [^3H]thymidine incorporation, as previously described (Davis L, et al., 1994 In: Basic methods in Molecular Biology, 2nd edition, Appleton & Lange, Norwalk, Conn., USA: 611-646, degli Uberti E C, et al., 1991 J Clin Endocrinol Metab 72: 1364-1371).
Approximately 10^5 pituitary cells from two functioning adenomas were plated in quadruplicate wells the day of surgery and treated the day after with SRIF and with Compounds 1, 2, 3, and LANREOTIDE at 10^−9M. After 48 h incubation in a medium supplemented with 10% FBS in the presence of [^3H]thy (1.5 μCi/mL; 87 Ci/mmol) with or without each SRIF analogue. Treatments were renewed by adding fresh analogues to the wells after the first 24 h of incubation, without removing the medium.
After incubation, the cells were washed three times with ice-cold PBS and twice with 10% ice-cold trichloroacetic acid (TCA). TCA-precipitated material was solubilized in 500 μL 0.2 mol/L sodium hydroxide and 0.1% SDS. Cell-associated radioactivity was then counted in a scintillation spectrometer. Results (counts per min per well) were obtained by determining the mean value of at least six experiments in quadruplicate. The viability of cells in control and treated cultures was evaluated by Trypan blue staining.

Compound | % Reduction Viable Cells (pituitary adenoma cells [1]) | % Reduction [3H]Thymidine (pituitary adenoma cells [2])
C[C@@H](O)[C@H](NC(=O)[C@H](Cc1ccccc1)NC(=O)[C@@H](NC(=O)[C@H](CCCCN)NC(=O)[C@@H](Cc1c[nH]c2ccccc12)NC(=O)[C@H](Cc1c[nH]c2ccccc12)NC(=O)[C@H](Cc1ccccc1)NC(=O)[C@H](N)Cc1ccccc1)[C@@H](C)O)C(N)=O [Compound 3, D-Phe-Phe-Trp-D-Trp-Lys-Thr-Phe-Thr-NH2] | 18.5% | –
C[C@@H](OCc1ccccc1)[C@H](NC(=O)[C@H]1CSSC[C@@H](NC(=O)CN(CCN)C(=O)Cn2ccc(N)nc2=O)C(=O)N[C@@H](Cc2cccnc2)C(=O)N[C@H](Cc2c[nH]c3ccccc23)C(=O)N[C@@H](CCCCN)C(=O)N1)C(=O)N[C@@H](Cc1ccc(O)cc1)C(N)=O [Compound 1, Caeg-c(D-Cys-Pal-D-Trp-Lys-D-Cys)-Thr(Bzl)-Tyr-NH2] (X1-[Gly(N-2-aminoethyl)][dC][3Pal][dW]K[dC]T(Bn)Y-NH2; disulfide 2-6) | – | 31.5%

Reference: patent US20040198653A1, “Pharmaceutical compositions which inhibit proliferation of pituitary adenomas and method of use thereof” (priority 2001, published 2004)
